Among the data in publication PMC6010280 are binding values, retold here.

The chains behind the UniProt entries cited, without tags or fusion partners. Residues count along the entry.
UniProt Q63396: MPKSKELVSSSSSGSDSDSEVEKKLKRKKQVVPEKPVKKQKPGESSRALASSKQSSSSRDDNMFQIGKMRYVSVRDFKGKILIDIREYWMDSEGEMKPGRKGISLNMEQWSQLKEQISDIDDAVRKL
UniProt Q9Z286: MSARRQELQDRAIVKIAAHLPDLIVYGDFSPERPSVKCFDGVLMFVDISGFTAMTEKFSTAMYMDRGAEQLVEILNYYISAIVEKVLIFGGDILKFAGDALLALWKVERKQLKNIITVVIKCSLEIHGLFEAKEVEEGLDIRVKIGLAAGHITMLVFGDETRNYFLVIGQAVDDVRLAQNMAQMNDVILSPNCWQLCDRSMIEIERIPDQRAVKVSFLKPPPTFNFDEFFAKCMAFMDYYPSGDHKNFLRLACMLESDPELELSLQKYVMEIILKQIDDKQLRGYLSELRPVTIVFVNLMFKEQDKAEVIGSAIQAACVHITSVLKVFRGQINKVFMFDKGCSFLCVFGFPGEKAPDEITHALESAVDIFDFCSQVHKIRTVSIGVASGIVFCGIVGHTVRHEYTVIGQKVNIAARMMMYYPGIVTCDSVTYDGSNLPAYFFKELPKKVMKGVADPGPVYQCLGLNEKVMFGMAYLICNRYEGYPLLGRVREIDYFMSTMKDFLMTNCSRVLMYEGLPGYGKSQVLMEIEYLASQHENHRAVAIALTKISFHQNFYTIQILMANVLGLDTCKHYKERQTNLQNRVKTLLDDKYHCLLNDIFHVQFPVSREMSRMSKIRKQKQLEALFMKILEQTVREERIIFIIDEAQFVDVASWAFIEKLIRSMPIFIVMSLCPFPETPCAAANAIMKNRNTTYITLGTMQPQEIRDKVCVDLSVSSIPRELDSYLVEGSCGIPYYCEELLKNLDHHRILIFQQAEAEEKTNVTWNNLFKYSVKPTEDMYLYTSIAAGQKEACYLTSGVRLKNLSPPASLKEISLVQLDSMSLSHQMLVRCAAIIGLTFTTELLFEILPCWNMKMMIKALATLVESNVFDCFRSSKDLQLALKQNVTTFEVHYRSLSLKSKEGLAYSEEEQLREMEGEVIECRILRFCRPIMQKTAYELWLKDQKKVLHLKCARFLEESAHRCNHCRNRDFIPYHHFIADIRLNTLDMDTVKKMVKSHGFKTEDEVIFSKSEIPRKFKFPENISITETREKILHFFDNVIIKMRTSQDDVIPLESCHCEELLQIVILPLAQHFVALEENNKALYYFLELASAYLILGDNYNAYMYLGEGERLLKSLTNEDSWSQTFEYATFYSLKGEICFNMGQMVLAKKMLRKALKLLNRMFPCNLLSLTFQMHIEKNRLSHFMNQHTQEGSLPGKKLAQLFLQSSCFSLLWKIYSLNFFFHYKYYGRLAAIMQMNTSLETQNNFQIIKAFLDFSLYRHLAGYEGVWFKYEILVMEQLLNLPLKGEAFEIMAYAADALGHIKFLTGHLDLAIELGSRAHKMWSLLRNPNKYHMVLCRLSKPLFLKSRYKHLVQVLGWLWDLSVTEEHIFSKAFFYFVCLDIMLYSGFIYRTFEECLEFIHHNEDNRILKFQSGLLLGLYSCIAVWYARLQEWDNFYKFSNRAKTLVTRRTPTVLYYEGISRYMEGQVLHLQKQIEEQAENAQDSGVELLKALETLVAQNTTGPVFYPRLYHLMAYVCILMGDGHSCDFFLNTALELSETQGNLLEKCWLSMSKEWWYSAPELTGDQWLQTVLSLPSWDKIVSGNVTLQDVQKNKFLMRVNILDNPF
UniProt B4F7A9: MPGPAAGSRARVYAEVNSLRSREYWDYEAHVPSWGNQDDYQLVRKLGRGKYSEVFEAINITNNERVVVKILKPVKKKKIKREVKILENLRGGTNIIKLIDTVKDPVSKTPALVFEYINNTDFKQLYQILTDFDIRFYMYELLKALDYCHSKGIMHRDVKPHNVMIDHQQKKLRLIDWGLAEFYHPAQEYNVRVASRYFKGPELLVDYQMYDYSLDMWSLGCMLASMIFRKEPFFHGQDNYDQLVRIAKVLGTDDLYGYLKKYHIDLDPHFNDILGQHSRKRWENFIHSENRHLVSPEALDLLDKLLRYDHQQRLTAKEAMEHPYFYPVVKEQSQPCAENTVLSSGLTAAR
UniProt Q6VV72: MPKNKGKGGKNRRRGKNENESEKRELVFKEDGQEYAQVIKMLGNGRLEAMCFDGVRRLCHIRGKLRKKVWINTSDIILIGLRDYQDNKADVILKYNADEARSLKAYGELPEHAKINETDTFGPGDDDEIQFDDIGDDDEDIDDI
UniProt P63018: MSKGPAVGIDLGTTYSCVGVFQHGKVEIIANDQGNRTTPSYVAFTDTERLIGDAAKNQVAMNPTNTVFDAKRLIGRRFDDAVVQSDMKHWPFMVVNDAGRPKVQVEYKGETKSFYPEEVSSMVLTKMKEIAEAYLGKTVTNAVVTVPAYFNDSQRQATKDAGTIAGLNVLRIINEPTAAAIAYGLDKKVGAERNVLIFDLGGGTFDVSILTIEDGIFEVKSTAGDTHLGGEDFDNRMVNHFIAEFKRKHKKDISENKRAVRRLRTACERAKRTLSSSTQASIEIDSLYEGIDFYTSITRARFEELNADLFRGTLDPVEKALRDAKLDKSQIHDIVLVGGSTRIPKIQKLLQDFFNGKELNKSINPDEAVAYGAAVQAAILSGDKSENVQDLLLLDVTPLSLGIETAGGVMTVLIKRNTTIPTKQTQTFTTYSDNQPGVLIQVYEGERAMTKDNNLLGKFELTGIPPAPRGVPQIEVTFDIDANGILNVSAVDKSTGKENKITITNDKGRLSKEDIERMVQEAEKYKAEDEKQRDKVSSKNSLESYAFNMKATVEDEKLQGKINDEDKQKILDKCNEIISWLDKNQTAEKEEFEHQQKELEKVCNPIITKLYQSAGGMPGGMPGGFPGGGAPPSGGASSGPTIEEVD
UniProt Q6URK4: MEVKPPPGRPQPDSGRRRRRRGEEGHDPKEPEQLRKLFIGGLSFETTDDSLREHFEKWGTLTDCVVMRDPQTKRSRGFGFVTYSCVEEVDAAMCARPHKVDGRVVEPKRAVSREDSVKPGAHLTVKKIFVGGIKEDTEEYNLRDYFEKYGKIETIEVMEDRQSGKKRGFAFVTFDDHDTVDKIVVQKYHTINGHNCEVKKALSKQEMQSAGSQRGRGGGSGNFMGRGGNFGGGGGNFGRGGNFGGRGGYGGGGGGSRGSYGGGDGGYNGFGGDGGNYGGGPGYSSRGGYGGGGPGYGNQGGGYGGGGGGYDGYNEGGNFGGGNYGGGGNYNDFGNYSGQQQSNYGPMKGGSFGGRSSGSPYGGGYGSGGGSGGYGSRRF
UniProt Q9JJ54: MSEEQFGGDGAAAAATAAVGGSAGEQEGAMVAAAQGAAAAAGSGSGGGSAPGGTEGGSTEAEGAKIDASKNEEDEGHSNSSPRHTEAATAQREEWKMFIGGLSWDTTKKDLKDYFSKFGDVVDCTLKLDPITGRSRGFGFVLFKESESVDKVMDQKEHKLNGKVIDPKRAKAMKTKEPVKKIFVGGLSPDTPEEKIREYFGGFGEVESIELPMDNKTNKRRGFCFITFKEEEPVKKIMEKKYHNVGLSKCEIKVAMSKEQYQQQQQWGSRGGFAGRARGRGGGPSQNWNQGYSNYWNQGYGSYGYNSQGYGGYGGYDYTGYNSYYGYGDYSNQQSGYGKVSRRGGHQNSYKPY
UniProt P04785, residues 20-509: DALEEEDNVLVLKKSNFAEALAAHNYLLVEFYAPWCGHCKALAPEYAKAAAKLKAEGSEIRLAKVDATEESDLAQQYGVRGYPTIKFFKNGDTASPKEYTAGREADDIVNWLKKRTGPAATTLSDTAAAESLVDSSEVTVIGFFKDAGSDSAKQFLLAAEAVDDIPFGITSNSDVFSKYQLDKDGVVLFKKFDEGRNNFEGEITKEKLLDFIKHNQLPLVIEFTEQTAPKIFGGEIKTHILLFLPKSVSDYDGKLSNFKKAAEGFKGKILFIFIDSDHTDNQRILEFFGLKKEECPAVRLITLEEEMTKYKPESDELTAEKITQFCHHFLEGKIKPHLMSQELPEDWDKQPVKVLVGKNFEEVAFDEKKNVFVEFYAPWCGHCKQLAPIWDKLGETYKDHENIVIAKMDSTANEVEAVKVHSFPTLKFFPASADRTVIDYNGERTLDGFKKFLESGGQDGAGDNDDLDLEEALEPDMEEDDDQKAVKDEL
UniProt P13444: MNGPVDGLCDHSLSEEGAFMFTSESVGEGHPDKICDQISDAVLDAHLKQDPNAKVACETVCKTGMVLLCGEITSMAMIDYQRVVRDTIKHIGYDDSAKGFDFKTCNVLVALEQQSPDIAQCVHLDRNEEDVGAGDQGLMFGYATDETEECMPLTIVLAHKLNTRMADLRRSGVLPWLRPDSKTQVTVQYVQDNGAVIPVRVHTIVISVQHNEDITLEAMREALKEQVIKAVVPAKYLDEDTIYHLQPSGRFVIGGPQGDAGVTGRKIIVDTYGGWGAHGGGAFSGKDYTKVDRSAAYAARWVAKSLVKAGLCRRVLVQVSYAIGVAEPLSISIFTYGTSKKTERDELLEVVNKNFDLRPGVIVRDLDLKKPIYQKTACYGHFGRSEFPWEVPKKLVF
UniProt P18298: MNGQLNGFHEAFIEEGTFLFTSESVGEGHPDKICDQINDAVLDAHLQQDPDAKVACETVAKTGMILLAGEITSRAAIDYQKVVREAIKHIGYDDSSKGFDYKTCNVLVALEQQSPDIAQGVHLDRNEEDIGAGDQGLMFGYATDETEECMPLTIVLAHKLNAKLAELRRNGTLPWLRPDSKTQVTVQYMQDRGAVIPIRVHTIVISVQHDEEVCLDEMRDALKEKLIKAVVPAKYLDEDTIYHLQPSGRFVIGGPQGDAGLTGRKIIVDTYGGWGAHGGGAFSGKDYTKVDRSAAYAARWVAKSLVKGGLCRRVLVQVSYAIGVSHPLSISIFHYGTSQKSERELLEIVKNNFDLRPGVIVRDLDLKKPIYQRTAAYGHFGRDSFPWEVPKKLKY
UniProt B0LT89: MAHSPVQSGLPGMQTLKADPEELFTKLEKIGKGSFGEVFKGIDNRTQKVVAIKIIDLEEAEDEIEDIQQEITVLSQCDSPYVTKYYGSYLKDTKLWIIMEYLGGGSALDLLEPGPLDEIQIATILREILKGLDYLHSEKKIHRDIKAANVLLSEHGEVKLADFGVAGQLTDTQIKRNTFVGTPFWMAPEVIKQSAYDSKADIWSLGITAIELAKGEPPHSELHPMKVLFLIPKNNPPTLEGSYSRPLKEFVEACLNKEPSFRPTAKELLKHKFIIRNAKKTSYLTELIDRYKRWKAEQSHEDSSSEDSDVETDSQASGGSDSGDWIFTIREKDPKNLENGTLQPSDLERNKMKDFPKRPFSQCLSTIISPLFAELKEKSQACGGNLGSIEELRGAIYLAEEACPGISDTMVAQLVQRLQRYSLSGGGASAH
UniProt Q9EQH1: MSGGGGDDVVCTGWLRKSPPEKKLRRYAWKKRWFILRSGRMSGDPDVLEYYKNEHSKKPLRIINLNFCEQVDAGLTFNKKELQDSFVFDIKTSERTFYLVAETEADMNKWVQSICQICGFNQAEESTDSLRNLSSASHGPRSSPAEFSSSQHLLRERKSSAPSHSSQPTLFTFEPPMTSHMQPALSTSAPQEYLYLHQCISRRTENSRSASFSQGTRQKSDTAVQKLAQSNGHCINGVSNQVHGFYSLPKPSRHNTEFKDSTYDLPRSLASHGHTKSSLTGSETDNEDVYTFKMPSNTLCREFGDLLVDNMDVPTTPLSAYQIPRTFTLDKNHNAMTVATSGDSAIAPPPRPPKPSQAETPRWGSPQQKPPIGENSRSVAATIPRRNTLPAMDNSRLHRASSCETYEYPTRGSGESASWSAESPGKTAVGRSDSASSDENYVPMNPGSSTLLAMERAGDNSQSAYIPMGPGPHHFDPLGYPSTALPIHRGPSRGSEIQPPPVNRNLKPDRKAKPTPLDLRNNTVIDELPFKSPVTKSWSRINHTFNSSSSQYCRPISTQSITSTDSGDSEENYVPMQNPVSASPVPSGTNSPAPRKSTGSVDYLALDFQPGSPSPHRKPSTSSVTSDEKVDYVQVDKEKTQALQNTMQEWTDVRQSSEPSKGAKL
UniProt Q6AXN8: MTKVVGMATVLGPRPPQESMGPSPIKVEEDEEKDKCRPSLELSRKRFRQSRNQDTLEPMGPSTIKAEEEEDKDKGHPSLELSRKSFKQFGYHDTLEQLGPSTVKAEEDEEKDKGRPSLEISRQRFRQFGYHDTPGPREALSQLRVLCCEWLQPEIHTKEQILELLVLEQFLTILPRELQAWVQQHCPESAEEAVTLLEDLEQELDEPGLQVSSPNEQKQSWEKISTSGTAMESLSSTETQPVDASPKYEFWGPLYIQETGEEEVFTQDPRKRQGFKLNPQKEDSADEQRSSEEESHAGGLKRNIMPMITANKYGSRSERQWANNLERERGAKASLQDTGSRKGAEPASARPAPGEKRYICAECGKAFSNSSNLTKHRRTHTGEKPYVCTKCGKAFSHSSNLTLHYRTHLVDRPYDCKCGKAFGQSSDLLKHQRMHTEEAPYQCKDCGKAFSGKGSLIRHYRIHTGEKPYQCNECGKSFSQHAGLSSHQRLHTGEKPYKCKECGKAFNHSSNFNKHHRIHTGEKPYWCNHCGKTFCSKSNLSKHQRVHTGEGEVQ

No constants are given. Whether binding was seen depends on the method and setting. Binding seen in cells or lysates may run through a third protein. A yes stands for co-enrichment or nearness to the bait. Other partners may have been found. For part of these data: A no says only that the protein was not detected with the bait.

The first test concerns the target T1, intein-BHMT (betaine homocysteine S-methyltransferase) (R. norvegicus) (UniProt O09171).
T1 sequence: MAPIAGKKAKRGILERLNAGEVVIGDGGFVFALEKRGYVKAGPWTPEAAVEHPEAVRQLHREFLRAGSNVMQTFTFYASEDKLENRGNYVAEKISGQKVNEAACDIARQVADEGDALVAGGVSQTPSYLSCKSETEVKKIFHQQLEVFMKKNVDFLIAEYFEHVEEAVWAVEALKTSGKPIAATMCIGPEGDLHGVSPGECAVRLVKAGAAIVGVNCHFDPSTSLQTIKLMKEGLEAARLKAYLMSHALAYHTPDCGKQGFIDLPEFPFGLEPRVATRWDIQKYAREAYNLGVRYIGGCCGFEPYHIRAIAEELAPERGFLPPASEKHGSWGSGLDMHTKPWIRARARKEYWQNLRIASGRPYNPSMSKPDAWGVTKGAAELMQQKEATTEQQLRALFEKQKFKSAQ
Put plainly: affinity purification with mass spectrometry; intein-BHMT held on chitin beads; rat liver cytosol first passed over a bead-only and an intein column; 10 mM sodium phosphate pH 7.4, 5 mM EDTA, 0.1 mM EGTA, 4°C; bound proteins eluted with a 0-500 mM NaCl gradient (peak at 50-100 mM NaCl); LC-MS/MS; only the target purified.
As to “14-3-3 protein epsilon (Ywhae) (from UniProt P62260 1-255)”, the binding entry is “binds”.

On to “Activated RNA polymerase II transcriptional coactivator p15 (from UniProt Q63396 1-127)”, for which the binding entry is given as “binds”. For the substance “Adenylate cyclase type 10 (from UniProt Q9Z286 1-1608)”, the binding result is recorded as “binds”.

As to AlF-C1 (from UniProt O88311), the binding result is on record as “binds”. With “Casein kinase 2 α2 (from UniProt B4F7A9 1-350)”, the binding entry is listed as “binds”. As to “DNA damage-binding protein 1 (from UniProt Q9ESW0 1-1140)”, the binding result is recorded as “binds”.

Consider “DNA-(apurinic or apyrimidinic site) lyase, APEX1 (from UniProt P43138 1-317)”, for which the binding result is listed as “binds”. As to “ECHP Peroxisomal bifunctional enzyme (from UniProt P07896 1-722)”, the binding entry was “binds”.

For “Eukaryotic translation initiation factor 1A (from UniProt Q6VV72 1-144)”, the binding entry was “binds”. As to “Eukaryotic translation initiation factor 5 (from UniProt Q07205 1-429)”, the binding entry was “binds”. On the same count and under the same terms, with “HSP7C Heat shock cognate 71 kDa protein (from UniProt P63018 1-646)” the entry was “binds”. For the substance “HSP72 Heat shock-related 70 kDa protein 2 (from UniProt P14659 1-633)”, the binding entry is “binds”. Regarding “Heterogeneous nuclear ribonucleoprotein A1 (from UniProt P04256 1-320)”, the binding entry is “binds”. Same read-out and setting: the same measure for “Heterogeneous nuclear ribonucleoprotein A3 (from UniProt Q6URK4 1-379)”: “binds”. Same read-out and setting: the same measure for “Heterogeneous nuclear ribonucleoprotein D0 (from UniProt Q9JJ54 1-353)”: “binds”; for “Heterogeneous nuclear ribonucleoproteins A2/B1 (from UniProt A7VJC2 1-353)”: “binds”.

“High mobility group box 3, Hmgb3 (from UniProt B0BN99)”: the binding entry is reported as “binds”.

As to “High mobility group protein B1 (HMGB-1) (from UniProt P63159 1-215)”, the binding result is “binds”.

As for “Homeobox protein (entry Q9QYQ9) (rat (endogenous in liver))”, the binding entry is recorded as “binds”. As to “Importin subunit alpha, Karyopherin alpha 4 (from UniProt Q56R17 1-521)”, the binding result is reported as “binds”. Take Nardilysin (from UniProt P47245): the binding result is reported as “binds”.

Regarding “Nuclease-sensitive element-binding protein 1 (from UniProt P62961 1-322)”, the binding result was “binds”.

Consider Nucleolin (from UniProt P13383 1-713), for which the binding result is given as “binds”. The same measure, in the same setting: the same measure for “Nucleophosmin (from UniProt P13084 1-292)”: “binds”; for “Protein disulfide-isomerase (from UniProt P04785 20-509)”: “binds”; for “Quinone oxidoreductase-like protein 2 (from UniProt B0BNC9)”: “binds”. As to “RAT Protein kinase C epsilon type (from UniProt P09216 1-737)”, the binding entry is reported as “binds”. As for “S-adenosylmethionine synthase isoform type-1, MATα1 (from UniProt P13444 1-397)”, the binding entry is listed as “binds”. Take “S-adenosylmethionine synthase isoform type-2, MATα2 (from UniProt P18298 1-395)”: the binding entry was “binds”. Regarding “S-adenosylmethionine synthase, MATα2 (entry Q6P688) (from UniProt P18298 1-395)”, the binding entry is “binds”.

As to “Serine/threonine-protein kinase 24 (from UniProt B0LT89 1-431)”, the binding entry is on record as “binds”.

As for “Serine/threonine-protein kinase WNK1 (from UniProt Q9JIH7 1-2126)”, the binding entry was “binds”. For “Serine/threonine-protein kinase WNK4 (from UniProt Q7TPK6 1-1222)”, the binding result is on record as “binds”.

The target in a further test is T1, intein-BHMT (betaine homocysteine S-methyltransferase) (R. norvegicus). Briefly: affinity purification with mass spectrometry; same columns; all eluates of the intein-BHMT column compared with those of the bead-only and intein columns; only the target purified.
Turning to “4-hydroxyphenylpyruvic acid dioxygenase (HPD) (liver cytosol) (from UniProt P32755 1-393)”, the binding entry is “no binding”. In the case of “transthyretin (liver cytosol) (from UniProt P02767 21-147)”, the binding entry is recorded as “no binding”.

A further test shares this target. Put plainly: affinity purification with mass spectrometry; same intein-BHMT chitin column after the salt gradient; proteins recovered together with BHMT upon intein excision with 30 mM 2-mercaptoethanol, 48 h at 23°C (strong interactors); LC-MS/MS; only the target purified.
As for Ac2-048 (from UniProt Q7TPK7), the binding entry is on record as “binds”.

Consider Annexin A2 (from UniProt Q07936 1-339), for which the binding result is given as “binds”. Regarding “Chloride intracellular channel protein 2 (from UniProt Q5M883 1-245)”, the binding result was “binds”.

On to “Collagen alpha-1(II) chain (from UniProt P05539 26-1419)”, for which the binding result is “binds”.

Consider “Cytoplasmic dynein 1 intermediate chain 1 (from UniProt Q63100 1-643)”, for which the binding entry is on record as “binds”. With “DNA ligase (entry Q5U2M4) (rat (endogenous in liver))”, the binding result was “binds”. As for “Dynein heavy chain 12, axonemal (from UniProt Q923J6 1-3092)”, the binding entry is “binds”. On the same count and under the same terms, with “GRB2-associated-binding protein 2 (from UniProt Q9EQH1 1-665)” the entry was “binds”. Consider “Hyaluronan synthase 1 (from UniProt Q8CH93)”, for which the binding entry is “binds”.

On to “Keratin, type II cytoskeletal 4 (from UniProt Q6IG00 1-536)”, for which the binding entry is listed as “binds”.

Turning to “LOC304239 protein (entry B2GV26) (rat (endogenous in liver))”, the binding entry is on record as “binds”. As to “LOC304239 protein (entry Q4V8M7) (rat (endogenous in liver))”, the binding entry is listed as “binds”. Turning to “Microspherule protein 1 (from UniProt Q5BJR5 1-462)”, the binding entry is “binds”. With Polr3a protein (from UniProt Q5RK26), the binding entry was “binds”. In the case of “RCG58555, isoform CRA_a (rat (endogenous in liver))”, the binding result is given as “binds”. Regarding “Sodium myo-inositol transporter (rat (endogenous in liver))”, the binding result is on record as “binds”.

Take Trypsin V-A (from UniProt P32821): the binding result is listed as “binds”. On to “Zinc finger and SCAN domain containing 21 (from UniProt Q6AXN8 1-554)”, for which the binding result is reported as “binds”. With “Zinc finger protein (entry Q9QYU6) (rat (endogenous in liver))”, the binding result was “binds”.
